# PubChem BioAssay AID1224830, NIAID – 2016
# Assay: 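Genes whose knock-down alters the TNF-alpha reporter response to LPS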 (primary screen)
# Cells: human THP-1 monocytic leukaemia cells, TNF dual-luciferase reporter clone, PMA-differentiated to macrophage-like cells
# Reagent: siRNA pool against human genes, 50 nM
# Timing: LPS for 4 h, given about 3 days after siRNA transfection
# Treatment: bacterial LPS (TLR4 ligand), 10 ng/ml
# Measured: 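Ratio of firefly to renilla light, scaled to the plate median and expressed as a robust z-score per replicate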
# Scale: TNF reporter robust z-score: higher = stronger TNF reporter response to LPS
# Rule for the call: 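a well is active when its z-score exceeds 2.8 or falls below -1.5; control wells carry no call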
# Shown is a random part of about 18,000 reagents. About 2,900 of all reagents (16%) were called active. 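Calls are made per well; low scores hint the gene aids the LPS response, high scores that it dampens it.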 Repeated entries: four replicate wells of each siRNA pool. Reagent sequences are not shown.
gene knocked down,TNF reporter robust z-score,Outcome
SAPCD2 (suppressor APC domain containing 2),2.54,inactive
SAPCD2 (suppressor APC domain containing 2),1.24,inactive
SAPCD2 (suppressor APC domain containing 2),2.23,inactive
SAPCD2 (suppressor APC domain containing 2),6.41,active
MSL2 (MSL complex subunit 2),3,active
MSL2 (MSL complex subunit 2),1.06,inactive
MSL2 (MSL complex subunit 2),-0.43,inactive
MSL2 (MSL complex subunit 2),1.86,inactive
KCNJ1 (potassium inwardly rectifying channel subfamily J member 1),1.64,inactive
KCNJ1 (potassium inwardly rectifying channel subfamily J member 1),0.84,inactive
KCNJ1 (potassium inwardly rectifying channel subfamily J member 1),0.78,inactive
KCNJ1 (potassium inwardly rectifying channel subfamily J member 1),0.32,inactive
TSHZ2 (teashirt zinc finger homeobox 2),0.42,inactive
TSHZ2 (teashirt zinc finger homeobox 2),-0.22,inactive
TSHZ2 (teashirt zinc finger homeobox 2),-0.32,inactive
TSHZ2 (teashirt zinc finger homeobox 2),0.03,inactive
NKX2-1 (NK2 homeobox 1),-1.13,inactive
NKX2-1 (NK2 homeobox 1),-1.01,inactive
NKX2-1 (NK2 homeobox 1),-1.6,active
NKX2-1 (NK2 homeobox 1),-1,inactive
IHO1 (interactor of HORMAD1 1),-1.36,inactive
IHO1 (interactor of HORMAD1 1),-1.69,active
IHO1 (interactor of HORMAD1 1),-1.8,active
IHO1 (interactor of HORMAD1 1),-1.48,inactive
"CCSAP (centriole, cilia and spindle associated protein)",-0.22,inactive
"CCSAP (centriole, cilia and spindle associated protein)",-0.04,inactive
"CCSAP (centriole, cilia and spindle associated protein)",0.04,inactive
"CCSAP (centriole, cilia and spindle associated protein)",-0.16,inactive
KLK15 (kallikrein related peptidase 15),-1.08,inactive
KLK15 (kallikrein related peptidase 15),-0.75,inactive
KLK15 (kallikrein related peptidase 15),0.48,inactive
KLK15 (kallikrein related peptidase 15),-1.02,inactive
ZFP36L2 (ZFP36 like 2 zinc finger CCCH-type),-0.51,inactive
ZFP36L2 (ZFP36 like 2 zinc finger CCCH-type),-0.14,inactive
ZFP36L2 (ZFP36 like 2 zinc finger CCCH-type),0.06,inactive
ZFP36L2 (ZFP36 like 2 zinc finger CCCH-type),-0.03,inactive
OAZ1 (ornithine decarboxylase antizyme 1),3.21,active
OAZ1 (ornithine decarboxylase antizyme 1),0.8,inactive
OAZ1 (ornithine decarboxylase antizyme 1),3.54,active
OAZ1 (ornithine decarboxylase antizyme 1),3.44,active
SLC35A3,-1.16,inactive
SLC35A3,-0.48,inactive
SLC35A3,-0.82,inactive
SLC35A3,-0.97,inactive
ZNF341 (zinc finger protein 341),-0.22,inactive
ZNF341 (zinc finger protein 341),0.23,inactive
ZNF341 (zinc finger protein 341),1.58,inactive
ZNF341 (zinc finger protein 341),0.2,inactive
FBXO36 (F-box protein 36),-0.02,inactive
FBXO36 (F-box protein 36),-0.66,inactive
FBXO36 (F-box protein 36),-1.55,active
FBXO36 (F-box protein 36),-1.31,inactive
MAOA (monoamine oxidase A),0.74,inactive
MAOA (monoamine oxidase A),-0.9,inactive
MAOA (monoamine oxidase A),-0.84,inactive
MAOA (monoamine oxidase A),-0.47,inactive
ZNF366 (zinc finger protein 366),1.06,inactive
ZNF366 (zinc finger protein 366),2.47,inactive
ZNF366 (zinc finger protein 366),0.94,inactive
ZNF366 (zinc finger protein 366),1.23,inactive
PAQR9 (progestin and adipoQ receptor family member 9),0.79,inactive
PAQR9 (progestin and adipoQ receptor family member 9),-0.9,inactive
PAQR9 (progestin and adipoQ receptor family member 9),-1.24,inactive
PAQR9 (progestin and adipoQ receptor family member 9),-1.36,inactive
OSBP (oxysterol binding protein),0.03,inactive
OSBP (oxysterol binding protein),0.07,inactive
OSBP (oxysterol binding protein),1.16,inactive
MAEL (maelstrom spermatogenic transposon silencer),-0.7,inactive
MAEL (maelstrom spermatogenic transposon silencer),0.65,inactive
MAEL (maelstrom spermatogenic transposon silencer),0.02,inactive
MAEL (maelstrom spermatogenic transposon silencer),1.23,inactive
TXNDC15 (thioredoxin domain containing 15),1.78,inactive
TXNDC15 (thioredoxin domain containing 15),1.54,inactive
TXNDC15 (thioredoxin domain containing 15),2.05,inactive
TXNDC15 (thioredoxin domain containing 15),1.47,inactive
LARGE2 (LARGE xylosyl- and glucuronyltransferase 2),-1.27,inactive
LARGE2 (LARGE xylosyl- and glucuronyltransferase 2),-1.23,inactive
LARGE2 (LARGE xylosyl- and glucuronyltransferase 2),-0.54,inactive
LARGE2 (LARGE xylosyl- and glucuronyltransferase 2),-1.4,inactive
TAGLN (transgelin),0.79,inactive
TAGLN (transgelin),1.12,inactive
TAGLN (transgelin),-0.12,inactive
TAGLN (transgelin),-0.28,inactive
ADAMTS5 (ADAM metallopeptidase with thrombospondin type 1 motif 5),1,inactive
ADAMTS5 (ADAM metallopeptidase with thrombospondin type 1 motif 5),-0.5,inactive
ADAMTS5 (ADAM metallopeptidase with thrombospondin type 1 motif 5),-1.05,inactive
ADAMTS5 (ADAM metallopeptidase with thrombospondin type 1 motif 5),0.35,inactive
ZNF568 (zinc finger protein 568),-0.83,inactive
ZNF568 (zinc finger protein 568),-0.76,inactive
ZNF568 (zinc finger protein 568),-0.39,inactive
ZNF568 (zinc finger protein 568),-0.22,inactive
CEP170 (centrosomal protein 170),-1.26,inactive
CEP170 (centrosomal protein 170),-0.47,inactive
CEP170 (centrosomal protein 170),-1.43,inactive
CEP170 (centrosomal protein 170),-0.94,inactive
"ABHD2 (abhydrolase domain containing 2, acylglycerol lipase)",0.36,inactive
"ABHD2 (abhydrolase domain containing 2, acylglycerol lipase)",0.93,inactive
"ABHD2 (abhydrolase domain containing 2, acylglycerol lipase)",0.47,inactive
"ABHD2 (abhydrolase domain containing 2, acylglycerol lipase)",1.28,inactive
MRFAP1 (Morf4 family associated protein 1),0.46,inactive
MRFAP1 (Morf4 family associated protein 1),0.37,inactive
MRFAP1 (Morf4 family associated protein 1),1.68,inactive
MRFAP1 (Morf4 family associated protein 1),1.13,inactive
WDR45B (WD repeat domain 45B),-1.45,inactive
WDR45B (WD repeat domain 45B),-0.7,inactive
WDR45B (WD repeat domain 45B),-1.08,inactive
WDR45B (WD repeat domain 45B),-0.41,inactive
TIA1 (TIA1 cytotoxic granule associated RNA binding protein),1.77,inactive
TIA1 (TIA1 cytotoxic granule associated RNA binding protein),-0.18,inactive
TIA1 (TIA1 cytotoxic granule associated RNA binding protein),0.85,inactive
TIA1 (TIA1 cytotoxic granule associated RNA binding protein),3.38,active
SACK1H (scaffolding CK1 anchoring protein H),0.61,inactive
SACK1H (scaffolding CK1 anchoring protein H),-0.16,inactive
SACK1H (scaffolding CK1 anchoring protein H),0.44,inactive
SACK1H (scaffolding CK1 anchoring protein H),0.48,inactive
GREB1 (growth regulating estrogen receptor binding 1),0.1,inactive
GREB1 (growth regulating estrogen receptor binding 1),0.98,inactive
GREB1 (growth regulating estrogen receptor binding 1),0.33,inactive
GREB1 (growth regulating estrogen receptor binding 1),0.68,inactive
DRD5 (dopamine receptor D5),-1.06,inactive
DRD5 (dopamine receptor D5),-1.28,inactive
DRD5 (dopamine receptor D5),-1.32,inactive
DRD5 (dopamine receptor D5),-1.44,inactive
TRIM72 (tripartite motif containing 72),-0.68,inactive
TRIM72 (tripartite motif containing 72),-0.1,inactive
TRIM72 (tripartite motif containing 72),-1.46,inactive
TRIM72 (tripartite motif containing 72),0.22,inactive
IDS (iduronate 2-sulfatase),-0.9,inactive
IDS (iduronate 2-sulfatase),-0.62,inactive
IDS (iduronate 2-sulfatase),-0.54,inactive
IDS (iduronate 2-sulfatase),0.8,inactive
CUX2 (cut like homeobox 2),-0.78,inactive
CUX2 (cut like homeobox 2),-0.79,inactive
CUX2 (cut like homeobox 2),0.09,inactive
CUX2 (cut like homeobox 2),0.68,inactive
SLIRP-OT1 (SLIRP overlapping transcript 1),-0.91,inactive
SLIRP-OT1 (SLIRP overlapping transcript 1),-1.03,inactive
SLIRP-OT1 (SLIRP overlapping transcript 1),0.19,inactive
SLC7A1,0.27,inactive
SLC7A1,-0.14,inactive
SLC7A1,0.44,inactive
SLC7A1,0.61,inactive

Targets above whose gene name starts with L or l:
gene knocked down,TNF reporter robust z-score,Outcome
LARGE2 (LARGE xylosyl- and glucuronyltransferase 2),-1.27,inactive
LARGE2 (LARGE xylosyl- and glucuronyltransferase 2),-1.23,inactive
LARGE2 (LARGE xylosyl- and glucuronyltransferase 2),-0.54,inactive
LARGE2 (LARGE xylosyl- and glucuronyltransferase 2),-1.4,inactive
